# Reference: the supplement of paper PMC8728848
# The list shows a part of the results.
# B1: TbCVNHOa (Tuber borchii), Q5MK11 (protein)
# chain: MSYADSSRNAVLTNGGRTLRAECRNADGNWVTSELDLDTCIGNPNGFLGWGMQNFSHSSEDIKLEEGGRKLTCRPKTVDGGFRERQGIDLNRIQNVNGRLVFQ
# Tests used:
# Experiment in all cases: glycan array binding signal (z-score within array); higher = stronger binding
# Conditions in all cases: glycan notation: IUPAC condensed, linker removed
# [1] = target: Gal(b1-3)[GlcNAc(b1-6)]GalNAc
# Procedure, shortened: (§1)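 The binding signal is a Z-score computed within each array. Data were drawn from 3228 arrays in the Consortium for Functional Glycomics database, restricted to those with a known protein sequence. Scores were averaged over arrays of the same protein sequence at different concentrations or buffers, and over linkers, and negative values can be taken as non-binding.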
# [2] = target: Gal(b1-3)[Neu5Ac(a2-6)]GalNAc
# Procedure, shortened: as §1
# [3] = target: Gal(b1-3)[Neu5Ac(a2-6)]GlcNAc(b1-6)Gal(b1-4)Glc
# Procedure, shortened: as §1
# [4] = target: Gal(b1-3)[Neu5Ac(b2-6)]GalNAc
# Procedure, shortened: as §1
# [5] = target: Gal(b1-4)GalNAc(a1-3)[Fuc(a1-2)]Gal(b1-4)GlcNAc
# Procedure, shortened: as §1
# [6] = target: Gal(b1-4)GalNAc(b1-3)[Fuc(a1-2)]Gal(b1-4)GlcNAc
# Procedure, shortened: as §1
# Gal(b1-4)Glc = target: Gal(b1-4)Glc
# Procedure, shortened: as §1
# Gal(b1-4)Glc6S = target: Gal(b1-4)Glc6S
# Procedure, shortened: as §1
# Gal(b1-4)GlcNAc = target: Gal(b1-4)GlcNAc
# Procedure, shortened: as §1
# [7] = target: Gal(b1-4)GlcNAc(a1-6)Gal(b1-4)GlcNAc
# Procedure, shortened: as §1
# [8] = target: Gal(b1-4)GlcNAc(b1-2)Man(a1-3)[Gal(b1-4)GlcNAc(b1-2)Man(a1-6)]Man(b1-4)GlcNAc(b1-4)GlcNAc
# Procedure, shortened: as §1
# [9] = target: Gal(b1-4)GlcNAc(b1-3)Gal(b1-3)GlcNAc
# Procedure, shortened: as §1
# [10] = target: Gal(b1-4)GlcNAc(b1-3)Gal(b1-4)Glc
# Procedure, shortened: as §1
# [11] = target: Gal(b1-4)GlcNAc(b1-3)Gal(b1-4)GlcNAc
# Procedure, shortened: as §1
# [12] = target: Gal(b1-4)GlcNAc(b1-3)Gal(b1-4)GlcNAc(b1-3)Gal(b1-4)GlcNAc
# Procedure, shortened: as §1
# [13] = target: Gal(b1-4)GlcNAc(b1-3)Gal(b1-4)[Fuc(a1-3)]GlcNAc(b1-3)Gal(b1-4)[Fuc(a1-3)]GlcNAc
# Procedure, shortened: as §1
# [14] = target: Gal(b1-4)GlcNAc(b1-3)GalNAc
# Procedure, shortened: as §1
# [15] = target: Gal(b1-4)GlcNAc(b1-3)[Gal(b1-4)GlcNAc(b1-6)]Gal(b1-4)GlcNAc
# Procedure, shortened: as §1
# [16] = target: Gal(b1-4)GlcNAc(b1-3)[Gal(b1-4)GlcNAc(b1-6)]GalNAc
# Procedure, shortened: as §1
# [17] = target: Gal(b1-4)GlcNAc(b1-3)[GlcNAc(b1-6)]Gal(b1-4)GlcNAc
# Procedure, shortened: as §1
# [18] = target: Gal(b1-4)GlcNAc(b1-6)Gal(b1-4)GlcNAc
# Procedure, shortened: as §1
# [19] = target: Gal(b1-4)GlcNAc(b1-6)Gal(b1-4)GlcNAc(b1-6)GalNAc
# Procedure, shortened: as §1
# [20] = target: Gal(b1-4)GlcNAc(b1-6)GalNAc
# Procedure, shortened: as §1
# [21] = target: Gal(b1-4)GlcNAc(b1-6)[Gal(b1-3)]GalNAc
# Procedure, shortened: as §1
# Gal3S(b1-3)GalNAc = target: Gal3S(b1-3)GalNAc
# Procedure, shortened: as §1
# Gal3S(b1-3)GlcNAc = target: Gal3S(b1-3)GlcNAc
# Procedure, shortened: as §1
# [22] = target: Gal3S(b1-3)[Fuc(a1-4)]GlcNAc
# Procedure, shortened: as §1
# Gal3S(b1-4)Glc = target: Gal3S(b1-4)Glc
# Procedure, shortened: as §1
# Gal3S(b1-4)Glc6S = target: Gal3S(b1-4)Glc6S
# Procedure, shortened: as §1
# Gal3S(b1-4)GlcNAc = target: Gal3S(b1-4)GlcNAc
# Procedure, shortened: as §1
# Gal3S(b1-4)GlcNAc6S = target: Gal3S(b1-4)GlcNAc6S
# Procedure, shortened: as §1
# [23] = target: Gal3S(b1-4)[Fuc(a1-3)]Glc
# Procedure, shortened: as §1
# Gal3S4S(b1-4)GlcNAc = target: Gal3S4S(b1-4)GlcNAc
# Procedure, shortened: as §1
# Gal3S6S(b1-4)GlcNAc = target: Gal3S6S(b1-4)GlcNAc
# Procedure, shortened: as §1
# Gal3S6S(b1-4)GlcNAc6S = target: Gal3S6S(b1-4)GlcNAc6S
# Procedure, shortened: as §1
# Gal4S(b1-4)GlcNAc = target: Gal4S(b1-4)GlcNAc
# Procedure, shortened: as §1
# Gal4S6S(b1-4)GlcNAc = target: Gal4S6S(b1-4)GlcNAc
# Procedure, shortened: as §1
# Gal6S(b1-4)Glc = target: Gal6S(b1-4)Glc
# Procedure, shortened: as §1
# Gal6S(b1-4)Glc6S = target: Gal6S(b1-4)Glc6S
# Procedure, shortened: as §1
# Gal6S(b1-4)GlcNAc = target: Gal6S(b1-4)GlcNAc
# Procedure, shortened: as §1
# Gal6S(b1-4)GlcNAc6S = target: Gal6S(b1-4)GlcNAc6S
# Procedure, shortened: as §1
# GalNAc(a1-3)Gal = target: GalNAc(a1-3)Gal
# Procedure, shortened: as §1
# GalNAc(a1-3)GalNAc = target: GalNAc(a1-3)GalNAc
# Procedure, shortened: as §1
# GalNAc(b1-3)Gal = target: GalNAc(b1-3)Gal
# Procedure, shortened: as §1
# [24] = target: GalNAc(b1-3)Gal(a1-4)Gal(b1-4)GlcNAc
# Procedure, shortened: as §1
binder,measurement,setting,value
B1,glycan array binding signal (z-score),[1],-0.531
same,glycan array binding signal (z-score),[2],-0.245
same,glycan array binding signal (z-score),[3],0.495
same,glycan array binding signal (z-score),[4],-0.508
same,glycan array binding signal (z-score),[5],-0.282
same,glycan array binding signal (z-score),[6],-0.096
same,glycan array binding signal (z-score),Gal(b1-4)Glc,-0.074
same,glycan array binding signal (z-score),Gal(b1-4)Glc6S,0.322
same,glycan array binding signal (z-score),Gal(b1-4)GlcNAc,0.276
same,glycan array binding signal (z-score),[7],0.041
same,glycan array binding signal (z-score),[8],-0.185
same,glycan array binding signal (z-score),[9],-0.43
same,glycan array binding signal (z-score),[10],1.38
same,glycan array binding signal (z-score),[11],-0.399
same,glycan array binding signal (z-score),[12],-0.117
same,glycan array binding signal (z-score),[13],-0.173
same,glycan array binding signal (z-score),[14],-0.207
same,glycan array binding signal (z-score),[15],-0.177
same,glycan array binding signal (z-score),[16],-0.412
same,glycan array binding signal (z-score),[17],-0.8
same,glycan array binding signal (z-score),[18],-0.653
same,glycan array binding signal (z-score),[19],-0.07
same,glycan array binding signal (z-score),[20],-0.523
same,glycan array binding signal (z-score),[21],-0.298
same,glycan array binding signal (z-score),Gal3S(b1-3)GalNAc,-0.036
same,glycan array binding signal (z-score),Gal3S(b1-3)GlcNAc,0.141
same,glycan array binding signal (z-score),[22],0.067
same,glycan array binding signal (z-score),Gal3S(b1-4)Glc,-0.224
same,glycan array binding signal (z-score),Gal3S(b1-4)Glc6S,0.335
same,glycan array binding signal (z-score),Gal3S(b1-4)GlcNAc,-0.034
same,glycan array binding signal (z-score),Gal3S(b1-4)GlcNAc6S,0.448
same,glycan array binding signal (z-score),[23],-0.266
same,glycan array binding signal (z-score),Gal3S4S(b1-4)GlcNAc,0.626
same,glycan array binding signal (z-score),Gal3S6S(b1-4)GlcNAc,-0.13
same,glycan array binding signal (z-score),Gal3S6S(b1-4)GlcNAc6S,-0.004
same,glycan array binding signal (z-score),Gal4S(b1-4)GlcNAc,0.199
same,glycan array binding signal (z-score),Gal4S6S(b1-4)GlcNAc,-0.13
same,glycan array binding signal (z-score),Gal6S(b1-4)Glc,-0.073
same,glycan array binding signal (z-score),Gal6S(b1-4)Glc6S,0.139
same,glycan array binding signal (z-score),Gal6S(b1-4)GlcNAc,0.146
same,glycan array binding signal (z-score),Gal6S(b1-4)GlcNAc6S,0.195
same,glycan array binding signal (z-score),GalNAc(a1-3)Gal,0.604
same,glycan array binding signal (z-score),GalNAc(a1-3)GalNAc,-0.403
same,glycan array binding signal (z-score),GalNAc(b1-3)Gal,0.821
same,glycan array binding signal (z-score),[24],0.396

# A stretch of the results above, for reference:
binder,measurement,setting,value
B1,glycan array binding signal (z-score),[5],-0.282
same,glycan array binding signal (z-score),[6],-0.096
